Literature values as cited in patent US8026281B2, “Treating metabolic syndrome with fenofibrate” (Lupin Atlantis Holdings, S.A., priority 2004, dated 2011).
At least one structure is not confirmed: it was looked up by name or label, or the drawing left a doubt.

Test system: patients with coronary heart disease
Settings: bezafibrate treatment; cited from earlier work

CC(C)(Oc1ccc(CCNC(=O)c2ccc(Cl)cc2)cc1)C(=O)O [bezafibrate]
increase of HDL-cholesterol: 16%
lowering of triglycerides: 24%
onset of type 2 diabetes: delayed the onset of type 2 diabetes
